B1: 14-3-3 family member Ywhab (protein, UniProt Q9CQV8 1-246)
chain: MTMDKSELVQKAKLAEQAERYDDMAAAMKAVTEQGHELSNEERNLLSVAYKNVVGARRSSWRVISSIEQKTERNEKKQQMGKEYREKIEAELQDICNDVLELLDKYLILNATQAESKVFYLKMKGDYFRYLSEVASGENKQTTVSNSQQAYQEAFEISKKEMQPTHPIRLGLALNFSVFYYEILNSPEKACSLAKTAFDEAIAELDTLNEESYKDSTLIMQLLRDNLTLWTSENQGDEGDAGEGEN
B2: 14-3-3 family member Ywhaq (protein, UniProt P68254 1-245)
chain: MEKTELIQKAKLAEQAERYDDMATCMKAVTEQGAELSNEERNLLSVAYKNVVGGRRSAWRVISSIEQKTDTSDKKLQLIKDYREKVESELRSICTTVLELLDKYLIANATNPESKVFYLKMKGDYFRYLAEVACGDDRKQTIENSQGAYQEAFDISKKEMQPTHPIRLGLALNFSVFYYEILNNPELACTLAKTAFDEAIAELDTLNEDSYKDSTLIMQLLRDNLTLWTSDSAGEECDAAEGAEN
B3: 14-3-3 family member Ywhag (protein, UniProt P61982 1-247)
chain: MVDREQLVQKARLAEQAERYDDMAAAMKNVTELNEPLSNEERNLLSVAYKNVVGARRSSWRVISSIEQKTSADGNEKKIEMVRAYREKIEKELEAVCQDVLSLLDNYLIKNCSETQYESKVFYLKMKGDYYRYLAEVATGEKRATVVESSEKAYSEAHEISKEHMQPTHPIRLGLALNYSVFYYEIQNAPEQACHLAKTAFDDAIAELDTLNEDSYKDSTLIMQLLRDNLTLWTSDQQDDDGGEGNN

Protein sequences, listed by entry. Tags and fused reporters are not part of them.
UniProt Q8BLR2: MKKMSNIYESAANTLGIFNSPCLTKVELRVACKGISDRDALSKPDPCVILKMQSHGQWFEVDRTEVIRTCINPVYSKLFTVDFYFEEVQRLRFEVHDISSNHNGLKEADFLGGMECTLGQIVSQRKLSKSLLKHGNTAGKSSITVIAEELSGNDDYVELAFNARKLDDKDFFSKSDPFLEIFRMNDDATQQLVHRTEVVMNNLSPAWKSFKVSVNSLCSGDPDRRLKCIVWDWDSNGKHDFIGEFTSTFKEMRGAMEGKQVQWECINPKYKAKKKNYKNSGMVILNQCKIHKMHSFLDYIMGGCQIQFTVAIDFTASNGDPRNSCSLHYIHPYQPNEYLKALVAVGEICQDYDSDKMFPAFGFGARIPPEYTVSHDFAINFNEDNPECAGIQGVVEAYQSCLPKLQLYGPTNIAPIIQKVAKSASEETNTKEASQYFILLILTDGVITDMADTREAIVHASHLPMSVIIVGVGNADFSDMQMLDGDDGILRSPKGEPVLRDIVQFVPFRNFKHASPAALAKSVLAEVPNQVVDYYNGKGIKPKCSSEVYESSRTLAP
UniProt P62259: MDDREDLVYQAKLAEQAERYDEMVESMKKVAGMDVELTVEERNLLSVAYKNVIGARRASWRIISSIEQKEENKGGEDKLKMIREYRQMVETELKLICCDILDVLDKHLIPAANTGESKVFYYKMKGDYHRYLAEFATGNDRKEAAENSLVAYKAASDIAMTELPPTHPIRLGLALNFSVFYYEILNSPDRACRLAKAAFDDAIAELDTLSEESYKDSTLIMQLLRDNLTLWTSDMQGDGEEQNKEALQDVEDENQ
UniProt P63101: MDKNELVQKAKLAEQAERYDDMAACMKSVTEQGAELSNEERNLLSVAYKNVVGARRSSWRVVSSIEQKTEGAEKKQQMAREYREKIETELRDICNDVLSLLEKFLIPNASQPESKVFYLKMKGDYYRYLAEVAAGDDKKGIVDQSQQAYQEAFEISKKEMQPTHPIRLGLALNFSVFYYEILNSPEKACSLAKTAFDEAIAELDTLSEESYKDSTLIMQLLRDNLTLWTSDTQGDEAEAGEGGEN
UniProt P14873: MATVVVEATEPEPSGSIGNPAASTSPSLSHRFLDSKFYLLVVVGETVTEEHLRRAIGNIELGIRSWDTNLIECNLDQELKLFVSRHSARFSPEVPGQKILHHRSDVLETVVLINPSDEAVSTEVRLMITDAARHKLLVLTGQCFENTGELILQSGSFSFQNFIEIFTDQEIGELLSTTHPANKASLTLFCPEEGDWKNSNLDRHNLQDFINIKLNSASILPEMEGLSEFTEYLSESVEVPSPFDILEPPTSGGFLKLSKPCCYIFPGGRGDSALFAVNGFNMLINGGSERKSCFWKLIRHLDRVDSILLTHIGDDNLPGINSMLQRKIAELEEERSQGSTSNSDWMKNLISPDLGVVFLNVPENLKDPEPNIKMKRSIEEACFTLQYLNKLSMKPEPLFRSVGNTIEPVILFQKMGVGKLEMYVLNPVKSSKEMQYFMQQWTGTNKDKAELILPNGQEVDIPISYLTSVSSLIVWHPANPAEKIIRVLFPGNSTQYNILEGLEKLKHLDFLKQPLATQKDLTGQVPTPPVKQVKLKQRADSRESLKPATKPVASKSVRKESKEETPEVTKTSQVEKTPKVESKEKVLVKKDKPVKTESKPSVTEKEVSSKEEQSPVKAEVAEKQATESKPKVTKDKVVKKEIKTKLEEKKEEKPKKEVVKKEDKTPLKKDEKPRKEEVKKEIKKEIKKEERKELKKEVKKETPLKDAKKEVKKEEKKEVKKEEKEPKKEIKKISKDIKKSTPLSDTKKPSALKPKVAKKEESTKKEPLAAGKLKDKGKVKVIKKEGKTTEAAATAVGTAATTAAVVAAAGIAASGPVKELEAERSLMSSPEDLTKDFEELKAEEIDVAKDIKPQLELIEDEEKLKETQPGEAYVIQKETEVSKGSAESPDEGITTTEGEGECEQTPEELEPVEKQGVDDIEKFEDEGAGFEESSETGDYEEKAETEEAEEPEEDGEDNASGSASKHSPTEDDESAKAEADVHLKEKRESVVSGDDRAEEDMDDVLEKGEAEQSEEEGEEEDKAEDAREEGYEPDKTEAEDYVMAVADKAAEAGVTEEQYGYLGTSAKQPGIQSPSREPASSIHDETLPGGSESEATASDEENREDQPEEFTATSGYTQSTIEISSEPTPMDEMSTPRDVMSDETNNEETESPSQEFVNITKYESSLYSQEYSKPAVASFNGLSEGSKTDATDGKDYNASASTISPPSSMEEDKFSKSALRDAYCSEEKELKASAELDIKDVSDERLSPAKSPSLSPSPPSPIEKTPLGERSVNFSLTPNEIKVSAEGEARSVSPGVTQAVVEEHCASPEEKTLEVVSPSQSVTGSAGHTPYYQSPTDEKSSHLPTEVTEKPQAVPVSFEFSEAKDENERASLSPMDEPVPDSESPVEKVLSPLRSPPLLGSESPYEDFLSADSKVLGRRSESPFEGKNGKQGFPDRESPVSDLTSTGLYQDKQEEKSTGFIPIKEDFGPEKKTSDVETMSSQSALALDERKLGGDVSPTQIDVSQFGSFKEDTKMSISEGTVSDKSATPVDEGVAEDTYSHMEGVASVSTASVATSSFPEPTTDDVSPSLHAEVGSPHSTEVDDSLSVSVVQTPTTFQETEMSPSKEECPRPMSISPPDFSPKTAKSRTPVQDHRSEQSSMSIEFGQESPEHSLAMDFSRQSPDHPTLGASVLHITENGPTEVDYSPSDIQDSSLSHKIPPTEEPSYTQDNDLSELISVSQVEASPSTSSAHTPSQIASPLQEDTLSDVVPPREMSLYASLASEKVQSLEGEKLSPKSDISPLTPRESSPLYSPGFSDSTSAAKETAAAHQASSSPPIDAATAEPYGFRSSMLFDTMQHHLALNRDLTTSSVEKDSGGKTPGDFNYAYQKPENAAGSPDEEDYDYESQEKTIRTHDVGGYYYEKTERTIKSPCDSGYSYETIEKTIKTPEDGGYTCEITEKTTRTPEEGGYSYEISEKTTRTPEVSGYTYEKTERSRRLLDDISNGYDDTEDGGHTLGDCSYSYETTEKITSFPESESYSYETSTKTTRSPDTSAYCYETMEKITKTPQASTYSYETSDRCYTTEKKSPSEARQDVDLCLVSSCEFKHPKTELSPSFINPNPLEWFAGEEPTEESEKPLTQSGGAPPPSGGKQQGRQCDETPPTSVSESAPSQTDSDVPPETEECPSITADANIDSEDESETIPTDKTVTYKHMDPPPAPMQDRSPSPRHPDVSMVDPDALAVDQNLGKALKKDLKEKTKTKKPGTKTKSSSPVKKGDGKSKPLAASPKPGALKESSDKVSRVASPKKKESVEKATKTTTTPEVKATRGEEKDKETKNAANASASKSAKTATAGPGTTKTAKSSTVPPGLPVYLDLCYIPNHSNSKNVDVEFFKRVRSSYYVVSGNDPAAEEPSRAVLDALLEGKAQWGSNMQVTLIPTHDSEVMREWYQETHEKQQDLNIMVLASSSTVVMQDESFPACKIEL
UniProt Q9JIS5: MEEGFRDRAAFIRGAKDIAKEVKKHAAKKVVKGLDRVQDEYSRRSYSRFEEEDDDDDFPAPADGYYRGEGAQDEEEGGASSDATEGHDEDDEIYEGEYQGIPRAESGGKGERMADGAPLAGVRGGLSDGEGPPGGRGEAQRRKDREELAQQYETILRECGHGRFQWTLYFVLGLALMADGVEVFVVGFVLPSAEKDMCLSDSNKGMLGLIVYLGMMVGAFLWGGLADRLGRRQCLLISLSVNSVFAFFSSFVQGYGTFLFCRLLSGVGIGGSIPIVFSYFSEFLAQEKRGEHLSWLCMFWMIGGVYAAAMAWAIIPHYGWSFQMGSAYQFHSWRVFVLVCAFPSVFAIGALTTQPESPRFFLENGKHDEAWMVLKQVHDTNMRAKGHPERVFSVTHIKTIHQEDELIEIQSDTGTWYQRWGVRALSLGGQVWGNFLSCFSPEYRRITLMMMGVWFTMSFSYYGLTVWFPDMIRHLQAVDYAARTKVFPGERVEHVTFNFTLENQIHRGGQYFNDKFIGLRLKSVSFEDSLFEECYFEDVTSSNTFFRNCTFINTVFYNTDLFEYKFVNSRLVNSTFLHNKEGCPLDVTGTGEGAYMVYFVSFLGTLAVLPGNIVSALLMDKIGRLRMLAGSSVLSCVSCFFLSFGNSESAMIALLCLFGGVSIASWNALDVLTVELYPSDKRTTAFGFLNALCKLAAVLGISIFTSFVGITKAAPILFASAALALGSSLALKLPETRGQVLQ
UniProt P61264: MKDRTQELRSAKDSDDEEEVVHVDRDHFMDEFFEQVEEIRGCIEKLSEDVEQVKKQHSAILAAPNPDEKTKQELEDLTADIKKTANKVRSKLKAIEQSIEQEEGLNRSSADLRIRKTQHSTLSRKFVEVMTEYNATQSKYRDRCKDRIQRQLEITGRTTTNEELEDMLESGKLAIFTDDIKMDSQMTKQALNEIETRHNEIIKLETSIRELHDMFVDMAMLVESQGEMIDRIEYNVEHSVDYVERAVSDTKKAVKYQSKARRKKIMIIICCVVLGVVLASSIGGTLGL

These are yes or no findings as the source states them, for the method shown. Binding seen in cells or lysates may run through a third protein. These calls come from enrichment with a bait or labelling near it, and not all partners need be listed.

For the experiment, the target named is GST-Cpne4 (UniProt Q8BLR2). As to the kind of experiment: affinity purification with mass spectrometry; GST, GST-Cpne4-vWA or GST-Cpne4 on glutathione magnetic beads incubated overnight at 4°C with cleared mouse retina lysate (50mM Tris-HCl, 150mM NaCl, 1mM EDTA, 0.5% NP40); glutathione elution, SDS-PAGE, LC-MS; three replicates; enrichment over GST at 2-fold change and 0.05 FDR; only the target purified.
With “14-3-3 family member Ywhae (from UniProt P62259 1-255)”, the binding result is “binds”.
Regarding “14-3-3 family member Ywhaz (from UniProt P63101 1-245)”, the binding entry is reported as “binds”.
For the molecule Map1b (from UniProt P14873 1-2464), the binding result was “binds”.
Regarding SV2 (from UniProt Q9JIS5 1-742), the binding entry is reported as “binds”.
In the case of Syntaxin-1 (from UniProt P61264 1-288), the binding entry is “binds”.
The same measure for B1: “binds”.
Turning to B2, the binding entry is “binds”.
Regarding B3, the binding result is recorded as “binds”.

The values are drawn from PMC8631636.
